Patent US20210069248A1
No constants are given. Whether binding was seen depends on the method and setting. Some binding calls cover weakened binding; strength is not graded here.

The chains behind the UniProt entries cited, without tags or fusion partners. Where a name states a change or a piece, a line headed by the entry shows the natural chain unless it says otherwise.
UniProt Q13261: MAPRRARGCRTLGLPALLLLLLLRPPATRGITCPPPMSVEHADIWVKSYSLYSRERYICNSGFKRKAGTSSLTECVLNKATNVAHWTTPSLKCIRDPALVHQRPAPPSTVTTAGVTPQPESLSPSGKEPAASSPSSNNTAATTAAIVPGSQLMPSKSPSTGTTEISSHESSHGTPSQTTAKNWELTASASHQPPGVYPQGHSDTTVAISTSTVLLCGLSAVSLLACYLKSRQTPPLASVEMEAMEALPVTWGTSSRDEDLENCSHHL

Columns and labels:
[1] = target: IL15-292 (constitutive membrane-bound IL15, mbIL15) (human); experiment: flow cytometry of transduced cord blood NK cells stained with IL15Ra-Fc and anti-CD56 antibody
[2] = target: IL15-292 (constitutive membrane-bound IL15, mbIL15) (human); experiment: flow cytometry of transduced TIL, co-staining with anti-IL15 antibody and IL15Ra-Fc (IL15+IL15Ra-Fc+ double positive population)
[3] = target: IL15-293 (ACZ-regulated membrane-bound IL15 linked to CA2 (M1del, L156H) DRD) (human); experiment: flow cytometry of transduced TIL after 10 µM ACZ for 24 hrs, co-staining with anti-IL15 antibody and IL15Ra-Fc (17.1% with low MFI in DMSO)
[4] = target: IL15-293 (ACZ-regulated membrane-bound IL15 linked to CA2 (M1del, L156H) DRD) (human); experiment: flow cytometry of transduced cord blood NK cells after 10 µM ACZ overnight, stained with IL15Ra-Fc and anti-CD56 antibody (10% or less in DMSO)
[5] = target: IL15-292 (constitutive membrane-bound IL15, mbIL15) (human); experiment: flow cytometry of transduced human T cells from NSG mouse blood on day 25, stained with IL15Ra-Fc and fluorochrome conjugated anti-human IgG antibody
[6] = target: IL15-294 (constitutive membrane-bound IL15, variant intracellular tail) (human); experiment: as above
[7] = target: IL15-293 (ACZ-regulated membrane-bound IL15 linked to CA2 (M1del, L156H) DRD) (human); experiment: flow cytometry of transduced human T cells from blood of ACZ-treated NSG mice on day 25, stained with IL15Ra-Fc and fluorochrome conjugated anti-human IgG antibody
[8] = target: IL15-295 (ACZ-regulated membrane-bound IL15, variant intracellular tail, linked to CA2 (M1del, L156H) DRD) (human); experiment: as above

- binding [1]: binds
- binding [2]: binds
- binding [3]: binds
- binding [4]: binds
- binding [5]: binds
- binding [6]: binds
- binding [7]: binds
- binding [8]: binds
Substance: recombinant protein comprised of extracellular domain of IL15Ra fused to human IgG1 Fc domain (IL15Ra-Fc) (from UniProt Q13261 31-205) (Fc fusion)
